These results are taken from PubChem BioAssay AID1508600 (Functional Genomics Laboratory (NCATS/FGL), 2020).

Screen size: about 53,000 sequences; about 3,700 (7%) were called active.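 Rule for the calls: active = gene knockdowns whose robust z-score for IL-1 alpha signal is at least 2 or at most -2, so actives lie on both sides; inactive = the rest.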 The list shows a part of the results.

This test is described as follows: Components of the Cytosolic LPS Sensing Pathway: Gene Identification via Genome-wide siRNA Screen.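 Note: robust z of the log signal after scaling to non-targeting control siRNA wells of the plate.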 The settings on record: RAW264.7 macrophages, IL-1a HTRF, actives lie on both sides, screened at 100 nM (by protocol), cells primed 5 h with Pam3CSK4 first. The gist of the method: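 Using IL-1a HTRF as read-out, the screen measured release from RAW264.7 cells after 48h siRNA knockdown (100 nM), 5 h Pam3CSK4 priming and 24 h cytosolic LipidA. Values were expressed relative to negative-control wells as robust z-scores.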
In general terms: TR-FRET usually uses a lanthanide donor and a delayed reading to cut background.
As for CGCAAGUAUUUCCACCAUATT against Clk4, the z-score is inactive: -0.41. In the case of GGCAGAAGUUGGAAGAAAUTT against Tap1, the z-score was inactive: 0.277.

In the case of GGAAUUUGUCAGGUUCCAATT against Grik4, the z-score was inactive: 0.859. Take CCAUUUGCUAUUGCUUAAATT against Faf2: the z-score is inactive: 0.0141. Take GCAGCCCACUCAUAUGAAATT against Homez: the z-score is inactive: -0.507.

AAACAGUCAUUUCCUAUAGTT against Olfr1502: the z-score is active: -2.04.

In the case of GGAAUCAUUUGUUCCCAACTT against Lpl, the z-score is inactive: -0.44. Consider GGAUGUUGUUCGAUUUGGATT against Ubiad1, for which the z-score is inactive: 0.895. Consider GGAAAAGAUUGACAUCUGCTT against Jrk, for which the z-score is inactive: -0.544. For CCUGGAACUUGUUGGAAGCTT against Igsf3 the value was inactive: 0.799. The value for GGAGAUCACAUGUUUUUUUTT against Keap1 was inactive: 0.231.

GCCUAUCUUGUCACCACUGTT against Tagln2: the z-score was inactive: -0.276.

As for GGCAUCUUCCUGAAAAAGCTT against Mybpc2, the z-score was inactive: -0.2. Regarding UCAUUAGUAUCCUCCGUAUTT against Olfr919, the z-score was inactive: 0.27. The value for “CCAUUUCCCAUUUCUGAAGTT against 1700001P01Rik” was active: -2.22; that for CCAUCCGGGAAAAAAUCAATT against Cdk5rap3 was inactive: -0.0797.

Regarding GGCAUGUUCUGGGCAGAUGTT against Resp18, the z-score was inactive: -0.12. CCAGAAACAUACGAAGAUUTT against Khdrbs1: the z-score is inactive: 0.459. The value for GGAGUAUGUGCAAUAUAAATT against Asb15 was inactive: -0.859; that for GAUUUGGUGUCUGCCGAGATT against Prrt1 was inactive: 1.73. Take CGUUACGUAAAUCUUGUGATT against Sstr2: the z-score is inactive: 0.227.

In the case of GCUGCAUAGACUCAUGGUUTT against Znrf1, the z-score is inactive: -0.408. Turning to GGCCUUUUGCCAUUGACAUTT against B3gat2, the z-score is inactive: -1.79.

On to GGUGAUAUAGCUAUUUUCUTT against Fbxw11, for which the z-score is inactive: 0.711. The value for GGAUCCACACAUAUGAGGATT against Rdh19 was inactive: -0.287; that for GGAGUGGAAGUUCAAAGAGTT against Anapc11 was inactive: -0.0607. The value for GCGAAGCUAUGGAGACAUGTT against Trib2 was inactive: -0.723. With GGCCAUUACUCUGAUUCAUTT against Phyhipl, the z-score was inactive: -0.499. As to GGUUUCUUCUAAGAACAAATT against Astl, the z-score is inactive: 1.46.

Consider CCACUUUCUAGAAAUCCUATT against Tmem41a, for which the z-score was active: -2.14.

For the sequence GGUGAUGGUAGCAAGACUGTT against Dcpp1, the z-score is inactive: 0.528. For GGACCUUCCAGCAAGAUUUTT against Rnf13, the z-score is inactive: 0.28.

As for GGAACUAGCCGUGAUGAUGTT against Htr1f, the z-score was inactive: -0.929. For GCAUCUACCAUGGAAAUAUTT against Clcn7, the z-score was inactive: 0.053. In the case of GGUGAACAUGUUUACAAACTT against Btf3, the z-score was inactive: 1.16.

With GGAGAAAUUCAUGACCAUGTT against Slc45a3, the z-score was inactive: 1.82. The value for GGCCAUCCGCAUUUUUUCCTT against Mex3b was inactive: -0.34.

Regarding GGAAUUGAAACACAUCUCUTT against Sntb1, the z-score is inactive: -0.904. For GGAUAUAAUAUCCUCGUAUTT against Sel1l3 the value was inactive: 0.199. On to CCACGAGAACCUCAAGGGUTT against Ckm, for which the z-score is inactive: -0.15. Turning to GGACGAGUCACACUUUGGATT against Cdyl2, the z-score is inactive: -0.328. For GGAUUUCGUCGAAAAGAAUTT against Mical3 the value was inactive: -1.76; for GGUAGCCAAUGGGAAAAAATT against Cnot6l, inactive: -0.69. GGACCUAAGCAUUUUACAUTT against Traf2: the z-score was inactive: -0.143. Take GGAAUGUGUUAAAAGCACUTT against Fign: the z-score is inactive: 0.369. Turning to CGACAAUGUGCCGAUGUUGTT against Pcdha8, the z-score is inactive: -0.0891. The value for CCAGUUGUGCAAUCAACAATT against Fam98c was inactive: -0.367; that for GGUCUUUGUACAUCAAUGUTT against Zfp677 was inactive: -0.241. For the sequence GGCAAAAGUACUGAUCACATT against Pcdhga7, the z-score is inactive: -0.378. For GGUACAAUACAUUCAAACATT against Serpinb6c the value was inactive: -0.82; for GGAAACCAGGAAUGUUAAUTT against Mrps2, inactive: 0.312. The value for GGACUUGUGGCUGAAAACCTT against Slc22a7 was inactive: 0.173; that for GGAUUUCAAUGAAACUCAGTT against Antxr1 was inactive: 0.859. For CCAUAUUACAACAACUCUCTT against Sytl4 the value was inactive: -0.0818. Regarding GGACAAAGGGAUAAUGCUGTT against Aldoc, the z-score was inactive: 0.735. For GGACCAAACCUAUCAAAAATT against Reep2 the value was inactive: -1.12.

Regarding GGUUGUCACAACAACAAUGTT against Oit3, the z-score was inactive: -0.971. The value for GCCGCAUCCACACAUCUCUTT against Daam2 was inactive: 0.465.

For GGUGACUUCGGAGAAAAGGTT against Sncaip, the z-score was inactive: 0.257. As to GGACAGCUAUUUGUUUUACTT against Azi2, the z-score was inactive: -0.0916. For “CGUACAAUCAUGUGUAAUGTT against 1110059E24Rik” the value was inactive: -0.711; for GGCACGAGCUCUCAUCUUUTT against Slc27a4, inactive: -0.752. For GGGCAGAAACAAAAGGUUATT against Tmlhe the value was inactive: 0.917. For GGCUAGAAAGGGUCUCAAATT against Cyp3a25 the value was inactive: -1.48; for GGAACUCCAAACCAGAUACTT against Gemin7, inactive: -0.136. On to GGGACAAAGCUUGUGAUCGTT against Lpar3, for which the z-score was inactive: -1.48. The value for GGAAUUCAGUUUUACCUGUTT against Slc6a13 was inactive: -0.152; that for CCGGUCCUCUCAGAAAUUATT against Asz1 was inactive: -0.32. The value for “CCGACGUGCAUGGAGAAAATT against 1700030J22Rik” was inactive: -0.541; that for GGAAGACAAAUCAGAAAGUTT against Marchf2 was inactive: -0.255; that for GGAUCUACUACCUGUCUUUTT against Pygm was inactive: -0.31. As to GCUUCUACCAAUGUUUAUCTT against Slc5a3, the z-score is inactive: 0.397. Regarding CGCAUCGACAGCUAUGUCATT against Rhbdf1, the z-score is inactive: -1.93. For GGAAUACUCUUAAAUGACUTT against Zfp455 the value was inactive: 0.0637; for CCUUUUCAUAUGGUACUCCTT against Ranbp6, inactive: -1.52. The value for GGAGAGCUGUUUGACUACATT against Melk was inactive: 1.45; that for GCCUGUACUUUCGACUUCUTT against Fpr1 was inactive: -1.15.

For the sequence GGAAAUUAUCUGCUUCUCATT against Dqx1, the z-score was inactive: -1.54.

As to “GGACAAGUUUACAAUGCAATT against 4930465K10Rik”, the z-score was inactive: 0.379. The value for GGCCGGAUUGUCUAUAUUUTT against Per1 was inactive: -0.182; that for GCCAGCUGUGGGAUUUCACTT against Gm9903 was inactive: -0.961. For GGCACUCAGGAAAAAAAAGTT against Clstn3 the value was inactive: -0.623; for GCCUUGAGUGCAUUAAUUUTT against Ube2r2, inactive: 0.49. For CGGAGCUAAUAUUUUAUGCTT against Mospd1 the value was inactive: -1.17; for GAACAUGGCUUGCUUCAGATT against Mtln, inactive: 1.58; for CGAGGUCUAUAACAUGACCTT against Smox, inactive: 0.744. Regarding GGUUGUGAAACAGCAAUUCTT against Ptx3, the z-score was inactive: -0.599. Regarding GGUGUAGAGAUUCACAGGUTT against Foxd1, the z-score is inactive: -0.413. For CCGGGAAGUGGAUAAUUUUTT against Olfr1368 the value was inactive: 0.609.

Regarding GGCCAUUGAGCUCAACCCUTT against Sgta, the z-score is inactive: -1.88.

GGAUAUGGAGACACAGAUGTT against Cd99l2: the z-score is inactive: 1.45.

On to GGAUUUUGUUUCAGGUGGATT against Itgb8, for which the z-score was inactive: 1.78. For GCUUCAAACCUCUUGCUCATT against Dmtn the value was inactive: 1.22; for “CCACACUAGAAUGAACAUATT against 3830417A13Rik”, inactive: 0.206; for GAACCUUCUGCUUUGAUGCTT against Olfr641, inactive: 0.119. The value for GGUGUACCCUGAAUUUGAATT against Wdr62 was inactive: -1.67; that for GGAAUUCAGGAUAUAAGGATT against Fut7 was inactive: -0.193. GCCGAAUUGGACAAGUCUATT against Plxnd1: the z-score was inactive: 0.37. For GGUGAUCGGCUCUUAGAGATT against Uncx the value was inactive: -0.241. For GGCAGAGAAUCAGCUCCUUTT against Il16 the value was inactive: 0.377. Turning to GCAUUCUACAACGAUCCCUTT against Hdac5, the z-score is inactive: 0.908. The value for GGAGGACGUGAACUUUGACTT against Stk32c was inactive: 0.648; that for “CCAUAGUUUUGGUUACCAATT against E330037G11Rik” was inactive: -0.213; that for GGACCAGAUUGCUAAUGAGTT against Fam13a was inactive: -0.0932.

As to GGGCUGGAUUUUCUCCAGATT against Med26, the z-score was inactive: -0.355. As to UUCACUGUAAGAAUUGUCUTT against Vmn1r93, the z-score was active: -2.11.
